# Data published in US10709745B2, “Tropic cell based virotherapy for the treatment of cancer” (priority 2013, dated 2020).
# At least one compound was matched to its structure with a doubt left.
# Test system: GBM43 glioma xenografts
# Assay: Intracranial GBM43 xenograft: TMZ, XRT and CRAd-S-pk7-loaded NSCs
# Assay type: in vivo, nude mice
# Description: FIGS. 43A, 43B and 43C illustrate the in vivo efficacy of CRAd-Survivin-pk7 (CRAd-S-pk7)-loaded NSCs and XRT-TMZ treatment against human-derived glioma xenografts according to one embodiment. Intracranial GBM43 (3.5×10^5 cells per animal) was established, and the animals were treated for 5 consecutive days beginning on day 6 after tumor cell implantation. (FIG. 43A): Survival of animals treated with escalating doses of intraperitoneally administered TMZ (0, 5, 10, or 30 mg/kg). (FIG. 43B): Survival of animals treated with XRT (2 Gy) or a combination of XRT (2 Gy) and TMZ (2.5, 5, 10, or 30 mg/kg). (FIG. 43C): Survival of animals treated with the optimized dose of 2 Gy XRT and 5 mg/kg TMZ in addition to 5×10^5 or 3×10^6 NSCs loaded with 50 infectious units of CRAd-S-pk7. […] Abbreviations: ND, not determined; ns, no significance; NSC, neural stem cell; TMZ, temozolomide; XRT, radiation therapy.
# FIGS. 45A and 45B illustrate the scheduling of CRAd-Survivin-pk7 (CRAd-S-pk7)-loaded NSC administration in vivo according to one embodiment. (FIG. 45A): Survival of animals treated with both therapeutic scheduling protocols. Intracranial GBM43 (3.5×10^5 cells per animal) was established, and the animals received an intratumoral (IT) injection of loaded NSCs (5×10^5) on day 5 followed by 5 consecutive days of XRT-TMZ (2 Gy and 5 mg/kg) therapy beginning on day 6 or alternatively XRT-TMZ therapy starting on day 6 for 5 consecutive days followed by an IT injection of loaded NSCs on day 12. […] (FIG. 45B): Fluorescent microscopy of mouse brain tissue bearing GBM43 xenografts (left). Top: Anti-cleaved caspase-3 (green). Bottom: Overlay; anti-cleaved caspase-3 (green) and anti-4′,6-diamidino-2-phenylindole (blue). Magnification, ×20. Scale bar=50 µm. For each treatment group, five images were taken using the […]20 objective, and the number of positive cells was quantified per field of view (right). *, p<0.05; **, p<0.01; ***, p<0.001. […]
compound,measurement,setting,value
"Cn1nnc2c(C(N)=O)ncn2c1=O [TMZ, temozolomide]",survival vs radiation alone,TMZ 2.5 mg/kg plus XRT 2 Gy ×5,no better than radiation alone
same,animals surviving long term (75 days),"TMZ 30 mg/kg i.p. ×5 days, alone",four out of five
same,survival vs mock-treated animals,"TMZ 5 and 10 mg/kg, alone",significant increase in their survival
